Test results from the supplement of paper PMC10849652.
This is one part of the list.

Protein sequences, listed by entry. Tags and fused reporters are not part of them. Lines headed by an entry give the natural chain unless they say otherwise; changes in a name come on top.
UniProt Q16740, whole entry, looked up: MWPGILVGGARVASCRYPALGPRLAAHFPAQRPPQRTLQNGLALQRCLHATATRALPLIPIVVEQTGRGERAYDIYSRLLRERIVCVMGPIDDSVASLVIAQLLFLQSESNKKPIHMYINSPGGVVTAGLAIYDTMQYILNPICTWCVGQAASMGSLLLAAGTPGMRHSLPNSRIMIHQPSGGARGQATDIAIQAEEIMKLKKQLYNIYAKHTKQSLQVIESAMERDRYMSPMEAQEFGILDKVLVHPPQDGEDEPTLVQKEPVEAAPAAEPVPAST
UniProt Q8NCH0: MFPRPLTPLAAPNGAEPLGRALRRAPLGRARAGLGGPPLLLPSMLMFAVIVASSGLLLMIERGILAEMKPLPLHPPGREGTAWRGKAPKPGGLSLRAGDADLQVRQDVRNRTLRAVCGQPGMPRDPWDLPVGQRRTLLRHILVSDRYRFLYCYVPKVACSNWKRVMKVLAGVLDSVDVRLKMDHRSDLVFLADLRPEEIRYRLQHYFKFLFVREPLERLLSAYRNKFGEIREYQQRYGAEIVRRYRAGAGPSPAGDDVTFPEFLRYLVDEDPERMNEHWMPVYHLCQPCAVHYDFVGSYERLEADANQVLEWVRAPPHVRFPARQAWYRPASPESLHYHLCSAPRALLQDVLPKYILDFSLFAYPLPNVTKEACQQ
UniProt Q8TD26: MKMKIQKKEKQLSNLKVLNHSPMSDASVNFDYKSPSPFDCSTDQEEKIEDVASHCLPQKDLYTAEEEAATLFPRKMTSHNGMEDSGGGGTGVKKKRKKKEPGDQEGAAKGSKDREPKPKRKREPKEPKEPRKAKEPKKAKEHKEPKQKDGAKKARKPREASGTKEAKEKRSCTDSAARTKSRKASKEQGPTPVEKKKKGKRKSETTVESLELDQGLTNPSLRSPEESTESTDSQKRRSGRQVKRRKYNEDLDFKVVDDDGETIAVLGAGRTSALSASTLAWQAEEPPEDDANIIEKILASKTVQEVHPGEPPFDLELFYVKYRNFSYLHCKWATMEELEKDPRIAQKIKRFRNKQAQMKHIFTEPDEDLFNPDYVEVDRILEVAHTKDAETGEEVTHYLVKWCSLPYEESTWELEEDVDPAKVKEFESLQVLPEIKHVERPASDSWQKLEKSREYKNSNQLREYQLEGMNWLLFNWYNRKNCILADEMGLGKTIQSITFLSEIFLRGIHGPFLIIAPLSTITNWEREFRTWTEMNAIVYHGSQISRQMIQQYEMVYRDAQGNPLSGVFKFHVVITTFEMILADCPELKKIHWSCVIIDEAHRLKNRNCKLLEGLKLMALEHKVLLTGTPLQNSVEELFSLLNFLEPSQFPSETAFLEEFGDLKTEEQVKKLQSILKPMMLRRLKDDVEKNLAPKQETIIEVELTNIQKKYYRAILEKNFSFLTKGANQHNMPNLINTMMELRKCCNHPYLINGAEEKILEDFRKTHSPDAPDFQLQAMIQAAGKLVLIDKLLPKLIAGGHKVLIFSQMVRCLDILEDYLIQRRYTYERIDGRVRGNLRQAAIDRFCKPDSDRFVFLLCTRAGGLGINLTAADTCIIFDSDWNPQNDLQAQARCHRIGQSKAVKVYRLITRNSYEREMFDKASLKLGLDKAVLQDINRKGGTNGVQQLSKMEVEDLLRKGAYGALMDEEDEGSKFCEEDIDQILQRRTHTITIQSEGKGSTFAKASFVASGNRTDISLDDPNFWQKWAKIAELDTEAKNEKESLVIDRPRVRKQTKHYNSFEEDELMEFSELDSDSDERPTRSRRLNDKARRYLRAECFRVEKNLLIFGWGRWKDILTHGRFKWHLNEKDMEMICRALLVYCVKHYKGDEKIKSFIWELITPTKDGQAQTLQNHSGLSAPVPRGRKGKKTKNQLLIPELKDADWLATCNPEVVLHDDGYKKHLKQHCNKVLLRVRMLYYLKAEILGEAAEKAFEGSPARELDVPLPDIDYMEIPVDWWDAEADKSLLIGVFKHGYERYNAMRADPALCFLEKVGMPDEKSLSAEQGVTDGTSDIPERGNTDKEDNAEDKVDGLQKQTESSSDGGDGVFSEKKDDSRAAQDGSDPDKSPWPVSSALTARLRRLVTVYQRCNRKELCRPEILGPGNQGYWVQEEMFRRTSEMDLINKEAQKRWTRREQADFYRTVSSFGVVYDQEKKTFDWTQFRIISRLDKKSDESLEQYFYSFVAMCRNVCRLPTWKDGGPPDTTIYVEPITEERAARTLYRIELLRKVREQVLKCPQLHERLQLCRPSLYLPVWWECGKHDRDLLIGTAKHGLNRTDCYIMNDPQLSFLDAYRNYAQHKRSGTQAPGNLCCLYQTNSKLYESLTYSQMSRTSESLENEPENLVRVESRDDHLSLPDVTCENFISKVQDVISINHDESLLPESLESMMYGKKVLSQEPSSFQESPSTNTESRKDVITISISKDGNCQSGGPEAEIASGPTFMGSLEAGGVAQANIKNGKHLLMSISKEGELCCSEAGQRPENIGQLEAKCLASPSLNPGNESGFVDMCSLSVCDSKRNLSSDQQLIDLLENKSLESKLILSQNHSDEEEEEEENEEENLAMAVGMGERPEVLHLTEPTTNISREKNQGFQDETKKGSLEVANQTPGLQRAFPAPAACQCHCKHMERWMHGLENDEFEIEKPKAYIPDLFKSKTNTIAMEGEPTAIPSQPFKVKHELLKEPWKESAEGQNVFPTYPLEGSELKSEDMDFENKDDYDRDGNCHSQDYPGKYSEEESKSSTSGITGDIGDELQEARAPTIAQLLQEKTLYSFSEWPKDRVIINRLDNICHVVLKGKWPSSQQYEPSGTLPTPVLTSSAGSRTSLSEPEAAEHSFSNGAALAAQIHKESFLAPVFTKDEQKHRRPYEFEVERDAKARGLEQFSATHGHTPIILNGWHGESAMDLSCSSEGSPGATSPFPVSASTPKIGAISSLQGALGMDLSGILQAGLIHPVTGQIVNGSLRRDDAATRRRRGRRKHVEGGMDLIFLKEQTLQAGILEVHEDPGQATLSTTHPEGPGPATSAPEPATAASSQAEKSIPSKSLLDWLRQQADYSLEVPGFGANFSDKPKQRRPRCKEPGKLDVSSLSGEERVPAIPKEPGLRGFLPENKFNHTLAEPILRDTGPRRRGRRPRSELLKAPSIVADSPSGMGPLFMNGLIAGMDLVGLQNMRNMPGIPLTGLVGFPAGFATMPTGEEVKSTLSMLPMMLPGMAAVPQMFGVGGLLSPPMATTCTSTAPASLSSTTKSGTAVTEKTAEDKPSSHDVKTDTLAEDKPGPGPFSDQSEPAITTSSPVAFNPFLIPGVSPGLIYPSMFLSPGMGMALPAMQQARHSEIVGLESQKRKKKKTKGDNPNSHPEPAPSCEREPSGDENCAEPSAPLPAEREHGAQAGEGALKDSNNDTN
UniProt O14967: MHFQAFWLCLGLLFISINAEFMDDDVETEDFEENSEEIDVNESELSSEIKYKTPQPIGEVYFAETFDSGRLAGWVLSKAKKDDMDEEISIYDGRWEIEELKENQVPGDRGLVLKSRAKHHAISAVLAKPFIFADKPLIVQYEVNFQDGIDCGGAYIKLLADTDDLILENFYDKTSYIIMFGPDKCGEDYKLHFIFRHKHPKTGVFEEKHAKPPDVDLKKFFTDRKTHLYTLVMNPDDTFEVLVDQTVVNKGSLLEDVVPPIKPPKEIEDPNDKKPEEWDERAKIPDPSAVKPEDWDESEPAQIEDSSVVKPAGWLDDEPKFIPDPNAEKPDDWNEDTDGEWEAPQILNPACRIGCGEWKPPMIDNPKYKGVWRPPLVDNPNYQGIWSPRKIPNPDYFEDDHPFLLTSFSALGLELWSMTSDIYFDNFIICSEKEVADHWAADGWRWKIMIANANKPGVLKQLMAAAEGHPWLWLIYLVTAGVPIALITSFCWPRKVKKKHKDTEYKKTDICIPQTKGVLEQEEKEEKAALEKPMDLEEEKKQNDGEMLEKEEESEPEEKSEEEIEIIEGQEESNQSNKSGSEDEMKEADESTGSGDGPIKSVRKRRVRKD
UniProt P51790: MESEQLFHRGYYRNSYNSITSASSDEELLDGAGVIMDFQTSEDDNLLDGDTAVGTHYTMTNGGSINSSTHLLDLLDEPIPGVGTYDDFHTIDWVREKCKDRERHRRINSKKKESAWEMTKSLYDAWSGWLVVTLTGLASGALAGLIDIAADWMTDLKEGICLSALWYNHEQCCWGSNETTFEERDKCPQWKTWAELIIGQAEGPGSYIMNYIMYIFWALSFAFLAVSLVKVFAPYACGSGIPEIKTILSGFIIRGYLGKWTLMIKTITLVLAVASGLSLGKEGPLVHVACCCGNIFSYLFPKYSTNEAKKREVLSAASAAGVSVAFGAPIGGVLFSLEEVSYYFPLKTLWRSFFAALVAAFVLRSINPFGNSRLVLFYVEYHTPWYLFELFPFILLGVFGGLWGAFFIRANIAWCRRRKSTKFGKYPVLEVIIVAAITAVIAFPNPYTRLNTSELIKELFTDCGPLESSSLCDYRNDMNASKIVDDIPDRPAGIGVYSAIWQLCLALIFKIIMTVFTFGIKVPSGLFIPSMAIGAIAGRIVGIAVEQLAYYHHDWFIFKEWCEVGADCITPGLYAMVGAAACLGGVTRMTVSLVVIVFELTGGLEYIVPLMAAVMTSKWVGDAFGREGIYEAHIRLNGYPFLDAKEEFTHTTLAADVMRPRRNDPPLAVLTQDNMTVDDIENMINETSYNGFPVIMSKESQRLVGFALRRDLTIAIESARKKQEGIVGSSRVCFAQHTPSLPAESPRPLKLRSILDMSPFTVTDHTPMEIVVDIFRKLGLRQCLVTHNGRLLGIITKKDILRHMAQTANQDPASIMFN
UniProt Q9NZZ3: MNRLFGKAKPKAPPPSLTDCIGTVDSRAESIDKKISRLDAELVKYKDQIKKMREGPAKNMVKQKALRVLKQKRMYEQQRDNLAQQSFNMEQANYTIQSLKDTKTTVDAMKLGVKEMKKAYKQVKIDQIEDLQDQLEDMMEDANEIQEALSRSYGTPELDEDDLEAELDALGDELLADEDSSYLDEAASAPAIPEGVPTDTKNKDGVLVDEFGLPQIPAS
UniProt Q96DG6: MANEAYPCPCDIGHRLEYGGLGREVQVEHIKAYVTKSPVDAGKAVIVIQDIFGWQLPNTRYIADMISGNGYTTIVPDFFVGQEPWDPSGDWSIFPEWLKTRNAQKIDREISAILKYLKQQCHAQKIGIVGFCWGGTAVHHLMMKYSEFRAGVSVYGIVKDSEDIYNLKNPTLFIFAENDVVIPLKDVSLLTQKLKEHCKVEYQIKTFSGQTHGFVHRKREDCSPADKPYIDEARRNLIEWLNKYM
UniProt P61024, whole entry, looked up: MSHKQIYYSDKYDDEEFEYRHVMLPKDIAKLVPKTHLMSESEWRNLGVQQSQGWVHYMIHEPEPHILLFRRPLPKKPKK
UniProt Q8WUH1: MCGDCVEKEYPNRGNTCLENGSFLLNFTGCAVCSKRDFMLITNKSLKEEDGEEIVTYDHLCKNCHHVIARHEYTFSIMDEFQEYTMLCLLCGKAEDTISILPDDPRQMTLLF
UniProt P54105: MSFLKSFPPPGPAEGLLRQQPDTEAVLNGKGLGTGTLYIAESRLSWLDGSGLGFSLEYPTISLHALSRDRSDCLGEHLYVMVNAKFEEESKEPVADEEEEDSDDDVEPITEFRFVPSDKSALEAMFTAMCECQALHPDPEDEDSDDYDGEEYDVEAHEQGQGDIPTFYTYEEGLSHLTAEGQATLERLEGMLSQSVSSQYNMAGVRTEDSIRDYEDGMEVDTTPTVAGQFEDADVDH
UniProt Q14677: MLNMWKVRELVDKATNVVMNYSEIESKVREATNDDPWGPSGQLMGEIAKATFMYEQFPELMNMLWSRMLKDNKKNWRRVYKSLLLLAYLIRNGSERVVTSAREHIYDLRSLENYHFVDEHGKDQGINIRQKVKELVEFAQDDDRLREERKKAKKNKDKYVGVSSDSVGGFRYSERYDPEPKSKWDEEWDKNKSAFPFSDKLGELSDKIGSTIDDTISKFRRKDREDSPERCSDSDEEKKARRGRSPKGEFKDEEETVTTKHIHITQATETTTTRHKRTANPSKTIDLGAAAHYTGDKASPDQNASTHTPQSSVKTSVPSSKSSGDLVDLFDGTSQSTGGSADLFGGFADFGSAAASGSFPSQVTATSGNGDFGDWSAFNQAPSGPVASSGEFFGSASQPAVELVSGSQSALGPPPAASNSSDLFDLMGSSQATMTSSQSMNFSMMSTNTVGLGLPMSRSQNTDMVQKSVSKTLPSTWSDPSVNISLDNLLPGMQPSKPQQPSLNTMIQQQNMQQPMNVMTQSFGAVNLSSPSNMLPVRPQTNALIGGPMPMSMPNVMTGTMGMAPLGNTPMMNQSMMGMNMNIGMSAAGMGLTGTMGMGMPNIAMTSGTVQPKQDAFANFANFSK
UniProt Q9BW66: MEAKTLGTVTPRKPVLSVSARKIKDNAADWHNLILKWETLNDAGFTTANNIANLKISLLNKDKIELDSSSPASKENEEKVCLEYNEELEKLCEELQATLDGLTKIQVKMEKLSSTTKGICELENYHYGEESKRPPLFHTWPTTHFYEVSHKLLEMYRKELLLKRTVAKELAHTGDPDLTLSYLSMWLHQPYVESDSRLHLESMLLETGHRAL

Legend:
Experiment in all cases: log2 fold change, soluble protein after heating vs DMSO (PISA); higher = thermal stabilisation; K562 lysate, 10 uM; active = over 0.2 and 3.5 SD of the protein, either way, in both replicates (recomputed)
[1] = compound: Cc1cn(-c2cc(NC(=O)c3ccc(C)c(Nc4nccc(-c5cccnc5)n4)c3)cc(C(F)(F)F)c2)cn1 [nilotinib]
Summary of the method: (§1)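 To prepare the extract, K562 pellets were dounce-homogenised in PBS pH 7.4 with 1 mM MgCl2, giving crude material at 1 mg/mL protein. This was treated with 10 μM compound for 30 min, then heated in aliquots for 3 min over 48°C-58°C before pooling and addition of NP-40 to 0.5% at 4°C. Centrifugation at 21,000xg for 90 min left soluble protein in the supernatant, which TMTpro 16plex LC-MS/MS quantified with equalised channel sums. Results are log-two fold changes in thermal stability compared with solvent controls, from duplicates.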

[2] = compound: Cc1nc(Nc2n[nH]c3c2CN(C(=O)N[C@H](CN(C)C)c2ccccc2)C3(C)C)c2sccc2n1
Summary of the method: as §1

[3] = compound: Cc1nc(Nc2ncc(C(=O)Nc3c(C)cccc3Cl)s2)cc(N2CCN(CCO)CC2)n1 [dasatinib]
Summary of the method: as §1

[4] = compound: Cc1ncc(-c2ccnc(Nc3ccc(S(C)(=O)=O)cc3)n2)n1C(C)C
Summary of the method: as §1

[5] = compound: Cn1cc(-c2ccc3c(c2)CCN3C(=O)Cc2cccc(C(F)(F)F)c2)c2c(N)ncnc21
Summary of the method: as §1

[6] = compound: Cn1cc(CNCC2CCN(c3ncc(C(=O)NO)cn3)CC2)c2ccccc21 [quisinostat]
Summary of the method: as §1

[7] = compound: Cn1cncc1[C@@](N)(c1ccc(Cl)cc1)c1ccc2c(c1)c(-c1cccc(Cl)c1)cc(=O)n2C [tipifarnib]
Summary of the method: as §1

[8] = compound: NC(=O)Nc1cc(-c2cccc(F)c2)sc1C(=O)N[C@H]1CCCNC1
Summary of the method: as §1

[9] = compound: NC(=O)c1cnc(N[C@@H]2CCCC[C@@H]2N)nc1Nc1cccc(-n2nccn2)c1
Summary of the method: as §1

[10] = compound: NC1(c2ccc(-c3nc4ccn5c(=O)[nH]nc5c4cc3-c3ccccc3)cc2)CCC1
Summary of the method: as §1

Measured: log2 fold change

CLPP (UniProt Q16740)
inactive: [1] 0 | [2] 0.011 | [3] 0.13 | [4] -0.022 | [5] 0.017 | [6] 0.022 | [7] -0.008 | [8] -0.011 | [9] -0.017 | [10] 0.001

CHST14 (UniProt Q8NCH0)
inactive: [1] -0.009 | [2] -0.204 | [3] -0.1 | [4] 0.07 | [5] 0.148 | [6] -0.08 | [7] 0.004 | [8] 0.069

CIAO1 (UniProt O76071)
inactive: [1] 0.024 | [2] -0.009 | [3] -0.027 | [4] 0.051 | [5] -0.038 | [6] 0.003 | [7] -0.023 | [8] -0.053 | [9] 0.006 | [10] -0.027

CIZ1 (UniProt Q9ULV3)
inactive: [1] 0.043 | [2] -0.021 | [3] -0.005 | [4] -0.047 | [5] 0.008 | [6] -0.023 | [7] -0.033 | [8] 0.028 | [9] -0.024 | [10] -0.02

Quoted at random: two entries already listed
CIAO1 (UniProt O76071)
inactive: [1] 0.024 | [2] -0.009 | [3] -0.027 | [4] 0.051 | [5] -0.038 | [6] 0.003 | [7] -0.023 | [8] -0.053 | [9] 0.006 | [10] -0.027

CLPP (UniProt Q16740)
inactive: [1] 0 | [2] 0.011 | [3] 0.13 | [4] -0.022 | [5] 0.017 | [6] 0.022 | [7] -0.008 | [8] -0.011 | [9] -0.017 | [10] 0.001

(continued)

CIC (UniProt I3L2J0)
inactive: [1] 0.045 | [2] 0.024 | [3] 0 | [4] 0.001 | [5] 0.006 | [6] 0.027 | [7] -0.087 | [8] -0.053 | [9] -0.073 | [10] 0.014

CHD6 (UniProt Q8TD26)
inactive: [1] -0.001 | [2] 0.006 | [3] 0.055 | [4] -0.032 | [5] 0.076 | [6] -0.035 | [7] 0.022 | [8] -0.074

CHMP4A isoform 2 (UniProt Q9BY43)
inactive: [1] -0.026 | [2] -0.021 | [3] 0.039 | [4] 0 | [5] -0.011 | [6] -0.145 | [7] 0.017 | [8] -0.029 | [9] -0.02 | [10] -0.009

CMIP (UniProt Q8IY22)
inactive: [1] -0.034 | [2] 0.023 | [3] -0.063 | [4] 0.016 | [5] 0.008 | [6] -0.052 | [7] -0.045 | [8] 0.075 | [9] -0.008 | [10] -0.036

CLGN (UniProt O14967)
inactive: [1] 0.009 | [2] -0.066 | [3] 0.004 | [4] -0.136 | [5] 0.03 | [6] -0.058 | [7] -0.078 | [8] 0.027 | [9] -0.017 | [10] -0.051

CLUH, A0A494C0R8
inactive: [1] 0.026 | [2] 0.146 | [3] 0.028 | [4] -0.022 | [5] 0.015 | [6] -0.165 | [7] -0.033 | [8] 0.022 | [9] -0.045 | [10] 0.046

CLCN3 isoform 2 (UniProt P51790)
inactive: [1] 0.017 | [2] -0.018 | [3] -0.012 | [4] 0.006 | [5] -0.008 | [6] 0.01 | [7] -0.012 | [8] 0.04 | [9] 0.022 | [10] 0.024

CHMP5 (UniProt Q9NZZ3)
inactive: [1] 0.007 | [2] 0.038 | [3] 0.025 | [4] -0.02 | [5] 0.007 | [6] -0.036 | [7] -0.029 | [8] -0.06 | [9] 0.001 | [10] -0.016

CMBL (UniProt Q96DG6)
inactive: [1] -0.029 | [2] 0.054 | [3] 0.155 | [4] 0.006 | [5] -0.025 | [6] -0.047 | [7] -0.001 | [8] -0.027 | [9] -0.023 | [10] 0.149

CHD1L (UniProt Q86WJ1)
inactive: [1] -0.01 | [2] -0.012 | [3] -0.024 | [4] 0 | [5] 0.024 | [6] -0.114 | [7] 0.032 | [8] 0.111 | [9] 0.028 | [10] -0.039

CHMP6 (UniProt Q96FZ7)
inactive: [1] 0.141 | [2] 0.04 | [3] -0.011 | [4] -0.029 | [5] 0.001 | [6] -0.02 | [7] -0.006 | [8] -0.043 | [9] -0.065 | [10] 0.035

CHCHD2P9 (UniProt Q5T1J5)
inactive: [1] -0.109 | [2] 0.011 | [3] 0.001 | [4] 0.007 | [5] -0.013 | [6] -0.099 | [7] -0.011 | [8] 0 | [9] -0.032 | [10] 0.152

CKS1B (UniProt P61024)
inactive: [1] -0.03 | [2] 0.04 | [3] 0.065 | [4] -0.066 | [5] 0.011 | [6] 0.069 | [7] 0.106 | [8] -0.051 | [9] 0 | [10] 0.11

CIAPIN1 (UniProt Q6FI81)
inactive: [1] 0.004 | [2] -0.009 | [3] 0.022 | [4] -0.002 | [5] -0.025 | [6] -0.029 | [7] 0.017 | [8] -0.009 | [9] -0.016 | [10] 0.011

CHMP2B (UniProt Q9UQN3)
inactive: [1] -0.002 | [2] 0.008 | [3] 0.018 | [4] -0.021 | [5] 0.053 | [6] 0.05 | [7] -0.002 | [8] -0.035 | [9] -0.018 | [10] 0.056

CHURC1 isoform 2 (UniProt Q8WUH1)
inactive: [1] 0.055 | [2] -0.029 | [3] 0.016 | [4] -0.09 | [5] -0.001 | [6] -0.074 | [7] 0.027 | [8] 0.018 | [9] -0.041 | [10] -0.083

CLPX (UniProt O76031)
inactive: [1] -0.01 | [2] -0.007 | [3] -0.017 | [4] 0.044 | [5] -0.003 | [6] -0.022 | [7] 0.068 | [8] 0.063 | [9] 0.001 | [10] 0.029

CHD2 (UniProt O14647)
inactive: [1] -0.031 | [2] 0.003 | [3] -0.081 | [4] 0.035 | [5] 0.238 | [6] -0.027 | [7] 0.004 | [8] 0 | [9] 0.085

CLPB isoform 2 (UniProt Q9H078)
inactive: [1] -0.011 | [2] -0.003 | [3] 0.076 | [4] -0.03 | [5] 0.018 | [6] 0.008 | [7] -0.004 | [8] 0.005 | [9] 0.031 | [10] -0.016

CHCHD7 isoform 4 (UniProt Q9BUK0)
inactive: [1] -0.147 | [2] 0.031 | [3] -0.044 | [4] -0.147 | [5] 0.041 | [6] -0.207 | [7] -0.117 | [8] 0.055 | [9] -0.04

CHCHD1 (UniProt Q96BP2)
inactive: [1] -0.09 | [2] -0.023 | [3] 0.084 | [4] -0.043 | [5] -0.097 | [6] -0.174 | [7] -0.03 | [8] 0 | [9] -0.023 | [10] -0.019

CLNS1A (UniProt P54105)
inactive: [1] 0.007 | [2] -0.021 | [3] 0.034 | [4] -0.005 | [5] 0.005 | [6] -0.029 | [7] 0.013 | [8] 0.029 | [9] -0.017 | [10] -0.017

CLINT1 isoform 3 (UniProt Q14677)
inactive: [1] 0.024 | [2] -0.009 | [3] 0.054 | [4] -0.014 | [5] 0.009 | [6] 0.126 | [7] -0.082 | [8] -0.029 | [9] -0.026 | [10] 0.031

CLTC (UniProt Q00610)
inactive: [1] 0.023 | [2] -0.024 | [3] -0.051 | [4] 0.008 | [5] 0.029 | [6] 0.06 | [7] -0.003 | [8] 0.031 | [9] 0.005 | [10] -0.029

CKMT1A (UniProt P12532)
inactive: [1] 0.008 | [2] -0.01 | [3] -0.018 | [4] 0.033 | [5] 0.029 | [6] -0.054 | [7] -0.025 | [8] 0.014 | [9] -0.04 | [10] 0.028

CINP isoform 3 (UniProt Q9BW66)
inactive: [1] -0.13 | [2] 0.065 | [3] -0.073 | [4] 0.19 | [5] 0.024 | [6] 0.015 | [7] -0.009 | [8] 0.034 | [9] 0.03
